Measurements: paper PMC11515493

Protein sequences, listed by entry. Tags and fused reporters are not part of them. Lines headed by an entry give the natural chain unless they say otherwise; changes in a name come on top.
UniProt P10636: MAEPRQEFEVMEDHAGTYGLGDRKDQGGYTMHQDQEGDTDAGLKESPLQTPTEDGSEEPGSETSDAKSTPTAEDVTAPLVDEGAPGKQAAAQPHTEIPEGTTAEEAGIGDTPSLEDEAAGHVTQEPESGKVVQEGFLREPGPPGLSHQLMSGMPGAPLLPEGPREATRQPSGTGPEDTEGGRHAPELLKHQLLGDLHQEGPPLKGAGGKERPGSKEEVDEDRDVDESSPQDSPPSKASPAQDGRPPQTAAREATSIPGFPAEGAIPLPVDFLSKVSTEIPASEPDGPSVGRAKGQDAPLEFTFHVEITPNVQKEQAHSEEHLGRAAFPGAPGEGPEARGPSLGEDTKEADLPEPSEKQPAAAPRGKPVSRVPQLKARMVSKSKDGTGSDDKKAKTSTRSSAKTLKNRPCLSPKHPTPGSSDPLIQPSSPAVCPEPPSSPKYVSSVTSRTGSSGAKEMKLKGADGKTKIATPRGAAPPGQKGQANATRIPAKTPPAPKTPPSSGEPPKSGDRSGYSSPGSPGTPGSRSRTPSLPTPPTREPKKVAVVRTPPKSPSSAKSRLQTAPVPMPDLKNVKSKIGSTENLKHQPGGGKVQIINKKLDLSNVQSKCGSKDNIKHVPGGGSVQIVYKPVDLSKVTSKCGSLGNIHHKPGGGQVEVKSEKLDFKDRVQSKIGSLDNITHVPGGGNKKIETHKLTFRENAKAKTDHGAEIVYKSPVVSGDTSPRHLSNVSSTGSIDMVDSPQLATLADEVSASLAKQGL
UniProt P70398: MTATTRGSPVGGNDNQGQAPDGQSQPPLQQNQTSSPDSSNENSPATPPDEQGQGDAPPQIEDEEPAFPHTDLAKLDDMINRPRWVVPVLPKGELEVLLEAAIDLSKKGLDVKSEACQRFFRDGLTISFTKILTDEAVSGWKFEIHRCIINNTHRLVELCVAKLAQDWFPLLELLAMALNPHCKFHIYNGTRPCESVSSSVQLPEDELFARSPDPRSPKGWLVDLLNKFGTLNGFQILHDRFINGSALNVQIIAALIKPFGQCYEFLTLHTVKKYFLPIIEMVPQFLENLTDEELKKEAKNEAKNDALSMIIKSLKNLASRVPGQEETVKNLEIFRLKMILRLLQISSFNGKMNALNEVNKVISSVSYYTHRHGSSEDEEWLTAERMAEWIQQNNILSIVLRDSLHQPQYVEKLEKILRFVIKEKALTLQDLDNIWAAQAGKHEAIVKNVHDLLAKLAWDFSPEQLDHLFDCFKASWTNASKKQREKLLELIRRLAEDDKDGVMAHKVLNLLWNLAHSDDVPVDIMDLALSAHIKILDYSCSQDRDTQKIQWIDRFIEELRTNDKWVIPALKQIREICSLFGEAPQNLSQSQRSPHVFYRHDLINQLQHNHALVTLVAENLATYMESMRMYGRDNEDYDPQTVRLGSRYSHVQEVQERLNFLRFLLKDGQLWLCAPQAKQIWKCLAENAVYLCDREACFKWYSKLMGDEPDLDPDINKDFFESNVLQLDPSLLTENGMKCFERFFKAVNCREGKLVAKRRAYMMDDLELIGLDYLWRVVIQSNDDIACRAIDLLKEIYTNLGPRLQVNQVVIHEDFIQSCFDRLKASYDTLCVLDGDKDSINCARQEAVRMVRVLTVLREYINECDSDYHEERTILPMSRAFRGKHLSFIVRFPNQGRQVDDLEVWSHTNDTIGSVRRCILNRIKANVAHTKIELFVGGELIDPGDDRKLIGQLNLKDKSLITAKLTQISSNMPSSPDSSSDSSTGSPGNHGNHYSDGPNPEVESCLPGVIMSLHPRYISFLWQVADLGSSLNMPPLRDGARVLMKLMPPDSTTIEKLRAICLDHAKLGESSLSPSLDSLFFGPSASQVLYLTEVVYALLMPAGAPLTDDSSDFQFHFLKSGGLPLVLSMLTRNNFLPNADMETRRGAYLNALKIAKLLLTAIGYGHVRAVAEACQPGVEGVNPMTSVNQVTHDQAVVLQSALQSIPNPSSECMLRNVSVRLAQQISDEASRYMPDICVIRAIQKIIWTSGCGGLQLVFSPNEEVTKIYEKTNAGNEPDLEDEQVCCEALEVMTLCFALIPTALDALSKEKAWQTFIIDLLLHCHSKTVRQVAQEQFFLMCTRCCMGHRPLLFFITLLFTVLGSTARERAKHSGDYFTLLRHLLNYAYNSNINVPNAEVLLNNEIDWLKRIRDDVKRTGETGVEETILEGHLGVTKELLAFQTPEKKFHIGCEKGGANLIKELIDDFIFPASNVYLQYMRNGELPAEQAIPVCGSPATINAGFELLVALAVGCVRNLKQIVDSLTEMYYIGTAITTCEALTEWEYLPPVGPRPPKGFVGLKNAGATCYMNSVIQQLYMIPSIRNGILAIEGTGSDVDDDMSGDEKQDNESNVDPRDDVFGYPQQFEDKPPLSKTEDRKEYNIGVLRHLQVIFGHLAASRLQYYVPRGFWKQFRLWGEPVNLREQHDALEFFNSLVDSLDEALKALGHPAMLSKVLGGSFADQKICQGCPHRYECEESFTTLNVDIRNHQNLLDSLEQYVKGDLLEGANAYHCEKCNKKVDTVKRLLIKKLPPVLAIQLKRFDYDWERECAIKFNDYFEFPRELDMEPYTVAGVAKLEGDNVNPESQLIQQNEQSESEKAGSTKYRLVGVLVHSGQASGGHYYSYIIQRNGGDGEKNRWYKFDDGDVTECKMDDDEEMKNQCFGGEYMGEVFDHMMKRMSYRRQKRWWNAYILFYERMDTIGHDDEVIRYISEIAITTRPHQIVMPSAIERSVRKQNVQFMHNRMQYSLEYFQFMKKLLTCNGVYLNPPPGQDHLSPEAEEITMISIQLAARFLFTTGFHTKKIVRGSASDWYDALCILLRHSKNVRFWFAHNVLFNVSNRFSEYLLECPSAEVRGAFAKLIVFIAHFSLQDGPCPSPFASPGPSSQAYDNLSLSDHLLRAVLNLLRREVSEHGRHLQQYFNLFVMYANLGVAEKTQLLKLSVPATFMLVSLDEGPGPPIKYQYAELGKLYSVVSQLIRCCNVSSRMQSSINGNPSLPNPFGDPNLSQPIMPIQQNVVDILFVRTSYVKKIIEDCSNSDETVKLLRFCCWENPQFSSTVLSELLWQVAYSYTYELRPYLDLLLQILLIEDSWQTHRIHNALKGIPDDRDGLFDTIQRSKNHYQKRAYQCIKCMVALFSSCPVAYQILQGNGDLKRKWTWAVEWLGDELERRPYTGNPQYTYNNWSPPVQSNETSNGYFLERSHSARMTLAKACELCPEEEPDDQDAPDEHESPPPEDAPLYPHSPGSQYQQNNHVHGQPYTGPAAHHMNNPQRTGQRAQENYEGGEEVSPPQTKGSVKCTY

Biological target: tau in the hippocampus of P301S mice (not stated (MAPT P301S transgene or endogenous mouse tau)) (UniProt P10636)
Test: co-IP; hippocampal lysate of P301S mice; 2 mg protein with 4 ug primary antibody overnight at 4 °C, Protein A + G agarose 4 h, three washes, Western blot

**Q.** How did the binding turn out when “USP9X (ubiquitin specific peptidase 9, X-linked), endogenous in mouse hippocampus (from UniProt P70398 1-2559) (enzyme)” was run?
**A.** binds

No constants are given. Whether binding was seen depends on the method and setting. Binding seen in cells or lysates may run through a third protein. A result given as binding can be weak or reduced; the word gives no strength.
